Patent US20250243238A1, “TETRAZINE AMINO ACIDS AND METHODS FOR THEIR PRODUCTION AND USE” (Oregon State University, priority 2024, published 2025)
Some of these results come from one statement about several compounds together.

Tested on: HEK293T cells
Assay: Toxicity screen of tetrazines (CellTiter Glo)
Type: cell-based, human

Row | SMILES | concentration in growth medium tolerated by cells (higher: cytotoxicity)
1 | N[C@@H](Cc1nnc(-c2ccccc2)nn1)C(=O)O [Tet4-Ph, (S)-2-amino-3-(6-phenyl-1,2,4,5-tetrazin-3-yl)propanoic acid] | up to 0.3 mM
2 | N[C@@H](Cc1nnc(-c2ccccn2)nn1)C(=O)O [Tet4-Pyr, (S)-2-amino-3-(6-(pyridin-2-yl)-1,2,4,5-tetrazin-3-yl)propanoic acid] | up to 0.3 mM
